PubChem BioAssay AID1224826 – NIAID, 2016
The deposit covers about 17,000 reagents; below is a random part of them. Of all reagents, about 1,110 (6.6%) got an active call. 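Active means lowered or raised reporter signal; replicate intensities are raw and not normalised per plate.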 A reagent listed more than once was tested more than once; the source does not tell the runs apart. Not all columns of the deposit are shown.

Purpose: 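Genes that change LPS-induced Tnf promoter activity in mouse macrophages when knocked down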 (primary screen)
Cell system: RAW264.7 G9 macrophages from mouse bearing reporters for p65 (GFP) and the Tnf promoter (mCherry)
Reagents: siRNA pool against mouse genes, 100 nM
Time to read-out: 16 h of LPS stimulation, after 2 days of siRNA transfection
Conditions: bacterial lipopolysaccharide (Salmonella minnesota R595), 10 ng/ml
Detection: 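Nuclear mCherry signal of the Tnf promoter reporter measured by imaging after background removal, scaled to each plate median and turned into robust z-scores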
Scale: Tnf reporter robust z-score: higher = stronger Tnf promoter reporter signal after LPS
Active means: 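a well counts as active at a score of -1.3 or below (Tlr4 knock-down control median) or above 3 (raised signal); controls and wells holding fewer than 50 cells are excluded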
Calls: active = Tnf reporter clearly lowered or raised; inactive = no clear change in Tnf reporter

{"target gene":"Ferry3 (FERRY endosomal RAB5 effector complex subunit 3)","Tnf reporter robust z-score":1.64,"fewer than 50 cells in well":"enough cells in well","activity call":"inactive"}
{"target gene":"Ezh2 (enhancer of zeste 2 polycomb repressive complex 2 subunit)","Tnf reporter robust z-score":-1.22,"fewer than 50 cells in well":"enough cells in well","activity call":"inactive"}
{"target gene":"Foxn2 (forkhead box N2)","Tnf reporter robust z-score":0.16,"fewer than 50 cells in well":"enough cells in well","activity call":"inactive"}
{"target gene":"Sp5 (trans-acting transcription factor 5)","fewer than 50 cells in well":"fewer than 50 cells per well; well left out of calls","activity call":"inactive"}
{"target gene":"Nkiras2 (NFKB inhibitor interacting Ras-like protein 2)","Tnf reporter robust z-score":-1.01,"fewer than 50 cells in well":"enough cells in well","activity call":"inactive"}
{"target gene":"Mars2 (methionine-tRNA synthetase 2 (mitochondrial))","Tnf reporter robust z-score":0.79,"fewer than 50 cells in well":"enough cells in well","activity call":"inactive"}
{"target gene":"Nsl1 (NSL1, MIS12 kinetochore complex component)","fewer than 50 cells in well":"fewer than 50 cells per well; well left out of calls","activity call":"inactive"}
{"target gene":"Slc19a3","fewer than 50 cells in well":"fewer than 50 cells per well; well left out of calls","activity call":"inactive"}
{"target gene":"Lcn6 (lipocalin 6)","Tnf reporter robust z-score":-0.74,"fewer than 50 cells in well":"enough cells in well","activity call":"inactive"}
{"target gene":"C130050O18Rik (RIKEN cDNA C130050O18 gene)","Tnf reporter robust z-score":-0.79,"fewer than 50 cells in well":"enough cells in well","activity call":"inactive"}
{"target gene":"Trap1a (tumor rejection antigen P1A)","fewer than 50 cells in well":"fewer than 50 cells per well; well left out of calls","activity call":"inactive"}
{"target gene":"Gtse1 (G two S phase expressed protein 1)","Tnf reporter robust z-score":1.55,"fewer than 50 cells in well":"enough cells in well","activity call":"inactive"}
{"target gene":"Slc25a27","Tnf reporter robust z-score":-0.39,"fewer than 50 cells in well":"enough cells in well","activity call":"inactive"}
{"target gene":"Slc5a8","Tnf reporter robust z-score":-1.11,"fewer than 50 cells in well":"enough cells in well","activity call":"inactive"}
{"target gene":"Insyn1 (inhibitory synaptic factor 1)","Tnf reporter robust z-score":-0.25,"fewer than 50 cells in well":"enough cells in well","activity call":"inactive"}
{"target gene":"Ctcf (CCCTC-binding factor)","Tnf reporter robust z-score":-1.4,"fewer than 50 cells in well":"enough cells in well","activity call":"active"}
{"target gene":"Epm2a (epilepsy, progressive myoclonic epilepsy, type 2 gene alpha)","Tnf reporter robust z-score":-0.1,"fewer than 50 cells in well":"enough cells in well","activity call":"inactive"}
{"target gene":"Cbfa2t3 (CBFA2/RUNX1 translocation partner 3)","Tnf reporter robust z-score":0.05,"fewer than 50 cells in well":"enough cells in well","activity call":"inactive"}
{"target gene":"Sart3 (squamous cell carcinoma antigen recognized by T cells 3)","Tnf reporter robust z-score":-1.32,"fewer than 50 cells in well":"enough cells in well","activity call":"active"}
{"target gene":"Sprr2d (small proline-rich protein 2D)","Tnf reporter robust z-score":0.06,"fewer than 50 cells in well":"enough cells in well","activity call":"inactive"}
{"target gene":"Zmat4 (zinc finger, matrin type 4)","Tnf reporter robust z-score":-0.81,"fewer than 50 cells in well":"enough cells in well","activity call":"inactive"}
{"target gene":"Tmem119 (transmembrane protein 119)","Tnf reporter robust z-score":-0.36,"fewer than 50 cells in well":"enough cells in well","activity call":"inactive"}
{"target gene":"Wrn (Werner syndrome RecQ like helicase)","Tnf reporter robust z-score":-0.71,"fewer than 50 cells in well":"enough cells in well","activity call":"inactive"}
{"target gene":"Fbxw19 (F-box and WD-40 domain protein 19)","Tnf reporter robust z-score":0.59,"fewer than 50 cells in well":"enough cells in well","activity call":"inactive"}
{"target gene":"Scn3a (sodium channel, voltage-gated, type III, alpha)","Tnf reporter robust z-score":-0.02,"fewer than 50 cells in well":"enough cells in well","activity call":"inactive"}
{"target gene":"Pdlim5 (PDZ and LIM domain 5)","Tnf reporter robust z-score":0.78,"fewer than 50 cells in well":"enough cells in well","activity call":"inactive"}
{"target gene":"Pdlim5 (PDZ and LIM domain 5)","Tnf reporter robust z-score":0.18,"fewer than 50 cells in well":"enough cells in well","activity call":"inactive"}

Records listed so far called active, once more:
{"target gene":"Ctcf (CCCTC-binding factor)","Tnf reporter robust z-score":-1.4,"fewer than 50 cells in well":"enough cells in well","activity call":"active"}
{"target gene":"Sart3 (squamous cell carcinoma antigen recognized by T cells 3)","Tnf reporter robust z-score":-1.32,"fewer than 50 cells in well":"enough cells in well","activity call":"active"}
